Results are given in words; binding and its absence hold for the method and conditions named. Some entries that bind do so weakly or less than the wild type.
Columns and labels:
[1] = molecular target: soluble human Fas ligand (FasL) (human) (UniProt P48023); assay: SPR, BIACORE 8K, multi-dose
[2] = molecular target: soluble human Fas ligand (FasL) (human) (UniProt P48023); assay: ELISA on soluble FasL

Protein sequences, listed by entry. Tags and fused reporters are not part of them. Lines headed by an entry give the natural chain unless they say otherwise; changes in a name come on top.
UniProt P48023: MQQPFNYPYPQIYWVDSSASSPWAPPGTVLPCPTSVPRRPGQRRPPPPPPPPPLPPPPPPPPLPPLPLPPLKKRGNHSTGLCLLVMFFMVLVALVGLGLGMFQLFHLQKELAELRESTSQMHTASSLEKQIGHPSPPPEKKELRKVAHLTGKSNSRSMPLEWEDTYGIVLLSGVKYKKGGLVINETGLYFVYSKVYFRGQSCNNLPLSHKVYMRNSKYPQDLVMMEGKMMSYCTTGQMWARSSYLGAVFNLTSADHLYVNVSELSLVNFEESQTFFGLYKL

- binding [1]: binds
- binding [2]: binds
B1: M3T01 (antibody, V domains shown)
VH: QVQLVESGGGVVQPGRSLRLSCAASGFTFSTYGIHWVRQAPGKGLEWVAVIWYDGSDKFYADSVKGRFTISRDNSKNTLYLQMNSLRAEDTAVYYCARDRDNWNYFDYWGQGTLVTVSS
VL: DIQMTQSPSTLSASVGDRVTITCRASQSISSWLAWYQQKPGKAPKFLIYQASSLESGVPSRFSGSGSGTEFTLTISSLQPDDFATYYCQQYNSYITFGQGTRLEIKR
